Record: PubChem BioAssay AID743454 (Peter MacCallum Cancer Centre, 2014)
In all, the deposit lists about 18,000 reagents; this is a random part of them. 450 of them (2.5%) were called active. 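Single biological run; no consistent viability z cut-off exists, so the class columns, not z-scores, define the calls.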 Entries without a mark were called inactive. Reagent sequences are not shown.

Assay: 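Search for knock-downs that restore vorinostat killing in resistant colon cancer cells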 (primary screen)
Cell system: human HCT116-VR colon cancer cells, selected for vorinostat resistance
Reagents: siRNA pool against human genes, 40 nM siRNA pool
Duration: vorinostat for 24 h, read-out about 72 h after transfection
Treatment: vorinostat at 2.5 µM final
Measurement: 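Cell viability by CellTiter-Fluor and caspase 3/7 activity by luminescence, each scaled to mock wells per plate, duplicates averaged, then robust z-scored over all plates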
Scale: viability robust z-score: higher = more viable cells than screen typical; caspase robust z-score: higher = more caspase 3/7 activity than screen typical
Hit rule: 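a knock-down is a hit when classed RV1 or RV2 for lowered viability, or CA1 or CA2 for caspase activation; those lethal without drug were dropped; hits were retested singly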

| target gene | PubChem SID | viability hit class | caspase hit class | viability robust z-score | caspase robust z-score |
| --- | --- | --- | --- | --- | --- |
| CEP63 | SID135623162 | no change | no change | 0.52 | -0.88 |
| ARRB1 | SID135622233 | no change | no change | 1.17 | 2.05 |
| SLC5A1 | SID135621415 | no change | no change | -0.49 | 0.64 |
| OR2Z1 | SID152156557 | no change | no change | -0.73 | -0.86 |
| PMP2 | SID134313326 | no change | no change | 1.43 | -0.56 |
| MAPT | SID152156050 | no change | no change | 0.44 | 0.4 |
| POGK | SID134321386 | no change | no change | 1.05 | -0.77 |
| BEND5 | SID152153050 | no change | no change | -0.25 | -0.68 |
| FOXF1 | SID152153465 | no change | no change | 0.26 | 3.04 |
| CTDSP1 | SID134317986 | no change | no change | -0.26 | 3.65 |
| FAAH | SID135621859 | no change | no change | 0.8 | -0.61 |
| BRINP2 | SID152155268 | no change | no change | -0.37 | 0.54 |
| SUPT20H | SID152154690 | no change | no change | -0.55 | 0.58 |
| CISD2 | SID152155286 | no change | no change | -1.16 | 2.75 |
| SLA | SID135622005 | no change | no change | -0.74 | -0.14 |
| DDO | SID152152702 | no change | no change | 0.08 | 4.01 |
| SIT1 | SID134323978 | no change | no change | -2.08 | 1.25 |
| NKAPL | SID152154174 | no change | no change | 0.71 | 0.02 |
| HHIPL1 | SID135624274 | no change | no change | 0.57 | -0.52 |
| CASK | SID56479000 | no change | no change | -0.64 | -0.47 |
| C15orf32 | SID152154571 | no change | no change | 0.72 | 0.01 |
| SLC6A6 | SID152150938 | no change | no change | 0.36 | -0.57 |
| TMEM218 | SID135624573 | no change | no change | -0.34 | -0.76 |
